PubChem BioAssay AID1259254, NCATS, 2017
This is one part, drawn at random, of about 59,000 deposited reagents. In the full data, about 1,550 (2.6%) are marked active. 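G2 share is only a proxy for re-replication; each gene was hit by three separate siRNAs, and active genes were retested.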 Raw values vary from plate to plate and are shown uncorrected. A number with no mark means an inactive call. Reagents against one gene are numbered here. Not given: the amount of reagent.

Aim: 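Finding genes that stop cells copying their DNA twice in one cycle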 (primary screen)
Cells: human HCT116 colorectal cancer cells
Reagents: single siRNA against human genes
Duration: 3 days
Detection: 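Imaged Hoechst DNA stain sorts each cell into a cycle phase by DNA amount; per plate, G2 fraction set to 0% for non-targeting and 100% for GMNN siRNA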
Direction: G2 robust z-score and G2 cells, % of GMNN control: higher = more G2 cells, more excess DNA replication; raw share of cells in G2: higher = larger share of cells with G2 DNA content
Active means: 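Active siRNAs have a G2 robust z of 5 or more median absolute deviations over the median, which in these data means about 38% or higher of GMNN control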

| gene | reagent no. | G2 robust z-score | G2 cells, % of GMNN control | raw share of cells in G2 (%) |
| --- | --- | --- | --- | --- |
| MPST | 1 | -0.694 | -1.92 | 2.56 |
| MPST | 2 | -0.0934 | 2.31 | 6.25 |
| MPST | 3 | -1.32 | -6.33 | 2.96 |
| FBXW8 | 1 | 2.24 | 18.7 | 11.5 |
| FBXW8 | 2 | 0.429 | 5.99 | 6.53 |
| FBXW8 | 3 | 0.88 | 9.16 | 6.5 |
| NRXN1 | 1 | -0.02 | 2.83 | 6.27 |
| NRXN1 | 2 | 0.188 | 4.29 | 4.67 |
| NRXN1 | 3 | 0.376 | 5.61 | 7.03 |
| PHF14 | 1 | -0.306 | 0.812 | 3.48 |
| PHF14 | 2 | -0.62 | -1.4 | 4.18 |
| PHF14 | 3 | 0.0703 | 3.46 | 6.51 |
| GABBR1 | 1 | 0.666 | 7.65 | 8.58 |
| GABBR1 | 2 | 0.912 | 9.38 | 7.8 |
| GABBR1 | 3 | 0.274 | 4.89 | 4.77 |
| RPL35A | 1 | 6.23 (active) | 46.8 | 24.9 |
| RPL35A | 2 | 3.11 | 24.8 | 14 |
| RPL35A | 3 | 3.7 | 29 | 13.8 |
| ZNF569 | 1 | 2.27 | 18.9 | 9.73 |
| ZNF569 | 2 | -0.614 | -1.35 | 3.05 |
| ZNF569 | 3 | 0.179 | 4.23 | 4.55 |
| TATDN2 | 1 | -0.0145 | 2.87 | 6.63 |
| TATDN2 | 2 | -0.459 | -0.261 | 3.83 |
| TATDN2 | 3 | 1.15 | 11.1 | 7.43 |

The list goes on (7 carried over from the part before).
| gene | reagent no. | G2 robust z-score | G2 cells, % of GMNN control | raw share of cells in G2 (%) |
| --- | --- | --- | --- | --- |
| RPL35A | 3 | 3.7 | 29 | 13.8 |
| ZNF569 | 1 | 2.27 | 18.9 | 9.73 |
| ZNF569 | 2 | -0.614 | -1.35 | 3.05 |
| ZNF569 | 3 | 0.179 | 4.23 | 4.55 |
| TATDN2 | 1 | -0.0145 | 2.87 | 6.63 |
| TATDN2 | 2 | -0.459 | -0.261 | 3.83 |
| TATDN2 | 3 | 1.15 | 11.1 | 7.43 |
| HS3ST6 | 1 | 5.27 (active) | 40.1 | 18.5 |
| HS3ST6 | 2 | -0.766 | -2.42 | 4.64 |
| HS3ST6 | 3 | -0.513 | -0.64 | 3.99 |
| FAM25EP | 1 | -0.658 | -1.66 | 3.01 |
| FAM25EP | 2 | 3.77 | 29.5 | 13.9 |
| FAM25EP | 3 | -1.11 | -4.82 | 1.74 |
| RBCK1 | 1 | -0.15 | 1.91 | 4.46 |
| RBCK1 | 2 | -0.0999 | 2.26 | 7.37 |
| RBCK1 | 3 | 2.93 | 23.6 | 15.9 |
| MANF | 1 | 1.92 | 16.4 | 12.4 |
| MANF | 2 | -0.878 | -3.21 | 2.62 |
| MANF | 3 | -0.979 | -3.92 | 1.96 |
| HTRA4 | 1 | 0.0187 | 3.1 | 6.91 |
| HTRA4 | 2 | 0.875 | 9.13 | 7.48 |
| HTRA4 | 3 | 0.229 | 4.58 | 5.97 |
| ARHGAP26 | 1 | -0.735 | -2.2 | 3.11 |
| ARHGAP26 | 2 | 1.18 | 11.3 | 7.94 |
| ARHGAP26 | 3 | -1.76 | -9.42 | 2.59 |
| TBC1D8B | 1 | 0.0263 | 3.15 | 7.81 |
| TBC1D8B | 2 | 1.36 | 12.5 | 8.93 |
| TBC1D8B | 3 | -0.513 | -0.643 | 4.07 |
| AHSA1 | 1 | -0.705 | -1.99 | 4.83 |
| AHSA1 | 2 | 11.8 (active) | 86 | 31.7 |
| AHSA1 | 3 | -0.153 | 1.89 | 7.22 |
| ATRN | 1 | -0.557 | -0.95 | 4.37 |
| ATRN | 2 | -1.61 | -8.33 | 2.34 |
| ATRN | 3 | -0.338 | 0.588 | 4.8 |
| QRFP | 1 | -0.142 | 1.97 | 4.66 |
| QRFP | 2 | -0.523 | -0.713 | 2.95 |
| QRFP | 3 | -0.101 | 2.26 | 5.1 |
| KRTAP1-1 | 1 | 0.967 | 9.77 | 5.37 |
| KRTAP1-1 | 2 | 1.83 | 15.9 | 9.38 |
| KRTAP1-1 | 3 | -1.1 | -4.74 | 2.05 |
| FASTKD1 | 1 | 1.39 | 12.8 | 9.75 |
| FASTKD1 | 2 | -0.779 | -2.51 | 3.2 |
| FASTKD1 | 3 | 0.899 | 9.29 | 4.92 |
| PI3 | 1 | 5.96 (active) | 44.9 | 19.4 |
| PI3 | 2 | -1.17 | -5.24 | 2.73 |
| PI3 | 3 | -0.996 | -4.04 | 2.28 |
| CCNT1 | 1 | 1.04 | 10.3 | 8.62 |
| CCNT1 | 2 | 0.632 | 7.41 | 6.65 |
| CCNT1 | 3 | 0.108 | 3.73 | 6.36 |
| RPS11P5 | 1 | 1.75 | 15.3 | 9.34 |
| RPS11P5 | 2 | 2.29 | 19 | 9.59 |
| RPS11P5 | 3 | -0.368 | 0.375 | 3.74 |
